A word on the AC50: it is the concentration giving half of the maximal activity seen.

The list shows a part of the results. Shown are side measurements of this screen, not its main read-out; they come without a call. Most of these compounds were active or inconclusive in the main read-out, so they are no random draw. The note in brackets gives the kind of curve behind each potency; many fits are weak.

The assay is described as follows: IkB Signaling. Particulars: ABC-DLBCL IkBa-CBG/CBR dual luciferase ratio (green luciferase fused to IkBa over red control in OCI-Ly3 lymphoma cells), 4 h; measured here: control luc red channel unless noted. The essentials:
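Luminescence ratio of IκBα-fused green versus native red beetle luciferase in OCI-Ly3 cells, 4 h post-doxycycline with compound; red signal alone, scaled from basal (0%) to zero light (-100%), flagged nonspecific or cytotoxic effects.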
`COc1cccc(C2=C(C(C)=O)Sc3nncn3N2C(C)=O)c1`: the AC50 was 31.6 µM [rising, single point] [measured here: IkB-luc green channel]. Regarding `Cc1cccc(C(=O)Nc2sc3c(c2C(=O)N2CCCCC2)CCC(C)C3)c1` (configuration not stated), the half-maximal activity concentration (AC50) was 12.6 µM [falling, partial curve]. As to `Cn1c(SCC(=O)N2c3ccccc3Sc3ccc(Cl)cc32)nnc1-c1ccco1`, the concentration at half-maximal activity (AC50) was 39.8 µM [falling, single point].

In the case of `Cc1oc2ccc(O)c(CN(C)Cc3ccccc3)c2c1C(=O)Nc1ccccc1`, the AC50 is 12.6 µM [falling, partial curve]. Consider `O=C(CCc1cn(Cc2ccc(F)cc2)c2ccccc12)NCCc1ccc(Cl)cc1`, for which the half-maximal activity concentration (AC50) was 12.6 µM [falling, partial curve]. With `CCN(c1ccccc1)c1nnc(NC(=O)Nc2ccc(Br)cc2)s1`, the half-maximal activity concentration (AC50) was 15.8 µM [falling, partial curve]. In the case of `COc1cccc(NC(=O)CSc2nc3ccc(NC(=O)c4cccs4)cc3s2)c1`, the AC50 was 7.94 µM [falling, partial curve]. With `Cc1ccc(C(=O)CC2(O)C(=O)N(Cc3ccccc3F)c3ccccc32)cc1` (configuration not stated) the figure was 20 µM [falling, partial curve]; with `Oc1ccc(CNc2ccc(F)cc2)c2cccnc12`, 7.94 µM [falling, partial curve]; with `Cc1ccc(NC(=O)Nc2nnc(N3CCCC3)s2)cc1`, 15.8 µM [falling, partial curve]. As to `Cc1cc(C)cc(NC(=O)CN(c2cc(C(F)(F)F)ccc2Cl)S(=O)(=O)c2ccccc2)c1`, the concentration at half-maximal activity (AC50) is 25.1 µM [falling, partial curve]. Turning to `O=C(CCS(=O)(=O)c1nc(-c2cccs2)cc(C(F)(F)F)n1)Nc1ccc(OC(F)(F)F)cc1`, the AC50 was 2.51 µM [falling, full curve]. Regarding `COC(=O)c1ccccc1NC(=O)C1=CC(c2ccc(C)cc2)=NS(=O)(=O)N1C`, the half-maximal activity concentration (AC50) was 12.6 µM [falling, partial curve]. With `COc1cccc(-c2nn(C)c3sc(C(=O)NCc4cc(OC)ccc4OC)cc23)c1` the figure was 3.16 µM [falling, full curve]; with `O=C(NC1CC1)c1cccc(Nc2ccc(-c3ccc4c(c3)OCCO4)nn2)c1`, 3.98 µM [falling, partial curve]. For `CC(=O)c1ccc(NC(=O)CCc2c(C)nc3c(c(C)nn3-c3ccc(C)cc3)c2C)cc1`, the AC50 was 10 µM [falling, partial curve]. In the case of `CC(=O)Nc1ccc(S(=O)(=O)N2CCN(c3cccc(C)c3C)CC2)cc1`, the AC50 was 12.6 µM [falling, partial curve].

In the case of `COc1ccccc1NC(c1ccc(Cl)cc1)c1nnc(-c2cccc(F)c2)o1` (configuration not stated), the AC50 is 15.8 µM [falling, partial curve].

Regarding `CC(C)(C)c1ccc(Cn2c(Cc3ccccc3)nc3ccccc32)cc1`, the AC50 was 12.6 µM [falling, partial curve].

Turning to `CCOc1ccc(-c2nonc2NC(=O)c2oc3ccc(F)cc3c2C)cc1`, the AC50 is 1 µM [falling, full curve, poor fit]. On to `Cc1cc(C)n(-c2nncn2NC(=O)c2ccc(Cl)cc2O)n1`, for which the AC50 is 15.8 µM [falling, partial curve]. For the compound `O=C(COc1ccccc1Cl)Nc1cc(-c2ccccc2F)nn1-c1ccccc1`, the AC50 is 12.6 µM [rising, single point]. For `COc1cccc(NC(=O)CSC2=Nc3ccccc3C3=NC(CC(=O)NC4CCCCC4)C(=O)N23)c1` (configuration not stated) the value was 0.126 µM [falling, full curve, poor fit]. For `COc1cc(OC)c(OC)cc1/C=C/c1nc2cc3ccccc3cc2c(=O)n1-c1ccc(F)cc1F`, the AC50 is 0.501 µM [falling, full curve]. Take `Cc1ccc2c(c1)-c1cc(C)nn1C(c1cc(Br)ccc1O)N2` (configuration not stated): the AC50 was 20 µM [falling, single point]. For `Cc1ccc(/C=N/c2sc3c(c2C#N)CCCCC3)o1`, the AC50 was 12.6 µM [falling, partial curve]. For `O=S(=O)(Nc1nc2n(n1)C(c1ccc(F)cc1)C=C(c1ccccc1)N2)c1ccccc1` (configuration not stated), the AC50 is 39.8 µM [falling, single point]. On to `COC(=O)c1ccc2c(=O)n(CCCCCC(=O)NCc3ccc(Cl)cc3)c(=O)[nH]c2c1`, for which the AC50 was 3.98 µM [rising, partial curve, poor fit]. For `Cc1ccc2ncc(C(=O)Nc3ccc(F)cc3F)c(=O)n2c1`, the concentration at half-maximal activity (AC50) was 2 µM [rising, partial curve]. On to `CCc1ccc(CNC(=O)c2ccc(NC(=O)N3CC(C)Sc4ccccc43)cc2)cc1` (configuration not stated), for which the half-maximal activity concentration (AC50) is 10 µM [falling, partial curve]. With `CC(C)(C)c1ccc(C(=O)NCC(c2cccs2)S(=O)(=O)c2ccccc2)cc1` (configuration not stated) the figure was 2.51 µM [rising, partial curve]. As to `Cc1nn2c(-c3cccc(NC(=O)c4ccccc4)c3)nnc2c2ccccc12`, the concentration at half-maximal activity (AC50) was 39.8 µM [falling, single point].

For the compound `COc1ccc(CNC(=O)c2ccc(N3CCCC3)c(NC(=O)NCc3ccc(C)cc3)c2)cc1`, the AC50 was 10 µM [falling, partial curve].

As to `O=C(Cc1ccccc1)N(Cc1cccnc1)c1nc2c(F)cc(F)cc2s1`, the AC50 is 3.16 µM [falling, partial curve]. For `Cc1cccc(N2CCN(C(=O)CCc3nnc4n(CC(C)C)c(=O)c5ccccc5n34)CC2)c1C` the value was 12.6 µM [falling, partial curve]; for `CCCn1c(NCc2cc(C)ccc2O)nc2ccccc21`, 20 µM [falling, partial curve]. Turning to `CC(C)c1ccc(OCC(=O)NC(Cc2c[nH]c3ccccc23)C(=O)O)cc1` (configuration not stated), the concentration at half-maximal activity (AC50) is 39.8 µM [falling, single point]. On to `CCc1ccccc1NC(=O)CN(Cc1ccccc1)S(=O)(=O)c1ccc(Br)cc1`, for which the AC50 is 7.94 µM [falling, partial curve].

As to `COc1ccc(CCNC(=O)c2ccc3c(c2)N(Cc2c(F)cccc2Cl)C(=O)CS3)cc1OC`, the half-maximal activity concentration (AC50) is 39.8 µM [falling, single point]. Regarding `CCc1ccccc1N(CC)C(=O)c1c(C)oc2ncnc(N3CCOCC3)c12`, the AC50 was 20 µM [falling, partial curve].

For `COc1ccc(NC(=O)Nc2nnc(C)s2)cc1`, the AC50 is 0.501 µM [rising, single point]. With `COc1ccc(NC(=O)CSc2nnc(-c3ccccc3Cl)n2Cc2ccco2)c(OC)c1`, the concentration at half-maximal activity (AC50) is 12.6 µM [falling, partial curve]. On to `Cc1cccc(CN2CCC(CNC(=O)c3c(C)oc4ncnc(N5CCCCC5)c34)CC2)c1`, for which the AC50 was 0.00631 µM [rising, full curve]. As for `CC(Sc1nc(=O)cc(N)n1CCc1ccccc1)C(=O)Nc1ccc(Cl)cc1` (configuration not stated), the half-maximal activity concentration (AC50) is 0.0251 µM [falling, full curve]. `CCN(C(=O)C1CCC(CNS(=O)(=O)c2cccc3nsnc23)CC1)c1ccc(C)c(C)c1` (configuration not stated): the half-maximal activity concentration (AC50) is 39.8 µM [falling, single point]. Regarding `CC(C)OCCCNC(=O)c1ccc2c(c1)NC(=O)c1ccccc1S2`, the AC50 is 39.8 µM [falling, single point]. `CCn1c(=O)sc2cc(NS(=O)(=O)c3ccc(F)c(C)c3)ccc21`: the AC50 is 20 µM [falling, partial curve]. Consider `Cc1ccc(CSc2cn(CC(=O)N3CCCC3)c3ccccc23)cc1`, for which the AC50 is 10 µM [falling, partial curve]. For the compound `O=C(CCS(=O)(=O)c1cc(Br)cc2c1N(C(=O)C1CC1)CC2)NCc1ccc(Cl)cc1`, the AC50 is 12.6 µM [falling, partial curve]. With `O=C(Nc1cc(-c2nc3ccccc3o2)ccc1Cl)c1ccc(N2CCCCC2)c([N+](=O)[O-])c1` the figure was 15.8 µM [rising, partial curve, poor fit]; with `COc1ccc(C2c3c(n(C)c4ccccc34)C(=O)N2CC(=O)Nc2ccc(C)c(Cl)c2)cc1` (configuration not stated), 10 µM [falling, partial curve].

With `Cc1ccc(NC(=O)Cn2cc(S(=O)(=O)c3ccc(C)cc3)c(=O)c3cc4c(cc32)OCO4)cc1`, the AC50 was 1.58 µM [falling, single point]. Consider `CC(=O)Nc1cc(OC(C)=O)c2nonc2c1OC(C)=O`, for which the concentration at half-maximal activity (AC50) is 20 µM [falling, partial curve]. For `CCc1ccc(C(=O)c2cn(CC(=O)Nc3cccc(OC)c3)c3ccc(OC)cc3c2=O)cc1`, the concentration at half-maximal activity (AC50) was 31.6 µM [falling, single point]. For `COc1ccccc1N1CCN(c2ncnc3c2cnn3-c2cc(Cl)ccc2C)CC1` the value was 5.01 µM [falling, partial curve]; for `O=C(NCCc1ccccc1)c1cnc2sc(N3CCCCCC3)nn2c1=O`, 3.16 µM [rising, partial curve]. On to `O=C(c1cc2ccccc2oc1=O)N1CCN(c2ccc(Cl)cc2)CC1`, for which the AC50 was 39.8 µM [falling, single point]. For `CCOC(=O)c1c(COc2ccccc2)oc2ccc(O)cc12`, the half-maximal activity concentration (AC50) was 20 µM [falling, partial curve]. As to `Cc1ccc(C(=O)N2c3ccc(C)cc3C(C)(c3ccccc3)CC2(C)C)cc1` (configuration not stated), the AC50 is 3.16 µM [falling, full curve]. Take `CCOC(=O)c1ccc(N2C(=O)c3[nH]nc(-c4ccc(C)cc4)c3C2c2cccc(F)c2)cc1` (configuration not stated): the AC50 was 6.31 µM [falling, partial curve]. With `COc1ccc(OCc2ccc(-c3nc4ccccc4c(=O)n3N)o2)cc1`, the half-maximal activity concentration (AC50) was 12.6 µM [falling, partial curve].

For the compound `Cc1c(Cl)cccc1NC(=O)c1cccc(NC(=O)N2CCSc3ncccc32)c1`, the AC50 is 15.8 µM [falling, partial curve].

These data come from PubChem BioAssay AID445 (National Center for Advancing Translational Sciences (NCATS), 2006).
